# From paper PMC6506688
# These are yes or no findings as the source states them, for the method shown. Binding seen in cells or lysates may run through a third protein. A result given as binding can be weak or reduced; the word gives no strength. Where a sequence is shown, tags or fusion partners need not be part of it.
# B1: MYC-tagged AIP (aryl hydrocarbon receptor interacting protein) (protein, UniProt O00170 1-330)
# chain: MADIIARLREDGIQKRVIQEGRGELPDFQDGTKATFHYRTLHSDDEGTVLDDSRARGKPMELIIGKKFKLPVWETIVCTMREGEIAQFLCDIKHVVLYPLVAKSLRNIAVGKDPLEGQRHCCGVAQMREHSSLGHADLDALQQNPQPLIFHMEMLKVESPGTYQQDPWAMTDEEKAKAVPLIHQEGNRLYREGHVKEAAAKYYDAIACLKNLQMKEQPGSPEWIQLDQQITPLLLNYCQCKLVVEEYYEVLDHCSSILNKYDDNVKAYFKRGKAHAAVWNAQEAQADFAKVLELDPALAPVVSRELRALEARIRQKDEEDKARFRGIFSH
# Target: FLAG-tagged FBXO11 (F box protein O11)
# Assay: co-IP; HEK293T cells transfected with epitope-tagged plasmids; whole-cell extracts immunoprecipitated with FLAG antibody overnight at 4°C, protein A and G agarose beads, five washes with lysis buffer, immunoblotting
binder,measurement,value
B1,binding,binds
